Assay results as given in the supplement of paper PMC10849652.
The other results are listed elsewhere or left out.

Protein sequences, listed by entry. Tags and fused reporters are not part of them. Lines headed by an entry give the natural chain unless they say otherwise; changes in a name come on top.
UniProt O60830: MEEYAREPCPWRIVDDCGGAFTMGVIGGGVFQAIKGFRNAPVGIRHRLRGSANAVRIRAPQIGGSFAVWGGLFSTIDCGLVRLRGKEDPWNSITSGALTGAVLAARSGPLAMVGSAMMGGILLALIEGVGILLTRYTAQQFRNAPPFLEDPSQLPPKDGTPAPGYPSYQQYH
UniProt Q5JTD0: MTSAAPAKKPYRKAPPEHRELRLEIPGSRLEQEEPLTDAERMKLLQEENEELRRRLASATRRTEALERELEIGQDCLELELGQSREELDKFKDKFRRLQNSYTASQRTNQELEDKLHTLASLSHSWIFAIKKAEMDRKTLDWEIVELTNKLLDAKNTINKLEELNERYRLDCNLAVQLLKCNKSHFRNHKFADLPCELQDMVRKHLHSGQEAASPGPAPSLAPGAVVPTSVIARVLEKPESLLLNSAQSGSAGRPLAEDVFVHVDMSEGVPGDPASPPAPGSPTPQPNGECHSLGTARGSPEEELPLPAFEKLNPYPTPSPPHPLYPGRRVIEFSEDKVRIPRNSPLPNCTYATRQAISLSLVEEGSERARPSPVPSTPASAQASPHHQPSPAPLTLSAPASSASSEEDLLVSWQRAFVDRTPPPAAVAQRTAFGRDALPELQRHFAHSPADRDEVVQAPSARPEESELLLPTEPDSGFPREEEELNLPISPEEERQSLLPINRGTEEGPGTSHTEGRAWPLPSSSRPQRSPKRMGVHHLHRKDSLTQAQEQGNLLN
UniProt O43422: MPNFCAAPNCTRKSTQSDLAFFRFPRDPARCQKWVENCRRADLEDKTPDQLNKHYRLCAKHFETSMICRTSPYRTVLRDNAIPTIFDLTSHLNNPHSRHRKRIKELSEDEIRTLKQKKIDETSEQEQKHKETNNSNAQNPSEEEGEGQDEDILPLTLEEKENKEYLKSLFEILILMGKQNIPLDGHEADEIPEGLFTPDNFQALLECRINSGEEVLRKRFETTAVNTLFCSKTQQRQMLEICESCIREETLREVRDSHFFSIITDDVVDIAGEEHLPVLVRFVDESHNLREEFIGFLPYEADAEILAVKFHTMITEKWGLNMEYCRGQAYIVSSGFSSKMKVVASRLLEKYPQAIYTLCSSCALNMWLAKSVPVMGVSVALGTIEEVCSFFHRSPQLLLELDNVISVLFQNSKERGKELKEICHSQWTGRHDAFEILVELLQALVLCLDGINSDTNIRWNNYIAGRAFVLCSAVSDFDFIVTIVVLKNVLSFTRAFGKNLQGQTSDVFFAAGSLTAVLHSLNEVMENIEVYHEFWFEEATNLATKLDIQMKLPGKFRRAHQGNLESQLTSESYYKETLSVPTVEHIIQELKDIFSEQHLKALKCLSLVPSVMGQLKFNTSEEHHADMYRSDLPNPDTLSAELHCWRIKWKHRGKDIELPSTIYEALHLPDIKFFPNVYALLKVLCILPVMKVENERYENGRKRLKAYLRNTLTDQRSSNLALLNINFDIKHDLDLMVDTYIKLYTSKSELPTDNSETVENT
UniProt Q9Y5J9: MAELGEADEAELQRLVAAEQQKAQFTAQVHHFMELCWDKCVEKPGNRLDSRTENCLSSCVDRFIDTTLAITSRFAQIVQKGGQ
UniProt Q86XR7, whole entry, looked up: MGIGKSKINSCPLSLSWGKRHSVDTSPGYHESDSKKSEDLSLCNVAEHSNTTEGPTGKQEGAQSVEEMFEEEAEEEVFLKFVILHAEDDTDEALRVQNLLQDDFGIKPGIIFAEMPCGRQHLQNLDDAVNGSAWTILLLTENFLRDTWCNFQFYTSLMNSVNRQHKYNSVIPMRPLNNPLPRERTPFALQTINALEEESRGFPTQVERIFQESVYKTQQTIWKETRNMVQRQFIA
UniProt Q9UNS1: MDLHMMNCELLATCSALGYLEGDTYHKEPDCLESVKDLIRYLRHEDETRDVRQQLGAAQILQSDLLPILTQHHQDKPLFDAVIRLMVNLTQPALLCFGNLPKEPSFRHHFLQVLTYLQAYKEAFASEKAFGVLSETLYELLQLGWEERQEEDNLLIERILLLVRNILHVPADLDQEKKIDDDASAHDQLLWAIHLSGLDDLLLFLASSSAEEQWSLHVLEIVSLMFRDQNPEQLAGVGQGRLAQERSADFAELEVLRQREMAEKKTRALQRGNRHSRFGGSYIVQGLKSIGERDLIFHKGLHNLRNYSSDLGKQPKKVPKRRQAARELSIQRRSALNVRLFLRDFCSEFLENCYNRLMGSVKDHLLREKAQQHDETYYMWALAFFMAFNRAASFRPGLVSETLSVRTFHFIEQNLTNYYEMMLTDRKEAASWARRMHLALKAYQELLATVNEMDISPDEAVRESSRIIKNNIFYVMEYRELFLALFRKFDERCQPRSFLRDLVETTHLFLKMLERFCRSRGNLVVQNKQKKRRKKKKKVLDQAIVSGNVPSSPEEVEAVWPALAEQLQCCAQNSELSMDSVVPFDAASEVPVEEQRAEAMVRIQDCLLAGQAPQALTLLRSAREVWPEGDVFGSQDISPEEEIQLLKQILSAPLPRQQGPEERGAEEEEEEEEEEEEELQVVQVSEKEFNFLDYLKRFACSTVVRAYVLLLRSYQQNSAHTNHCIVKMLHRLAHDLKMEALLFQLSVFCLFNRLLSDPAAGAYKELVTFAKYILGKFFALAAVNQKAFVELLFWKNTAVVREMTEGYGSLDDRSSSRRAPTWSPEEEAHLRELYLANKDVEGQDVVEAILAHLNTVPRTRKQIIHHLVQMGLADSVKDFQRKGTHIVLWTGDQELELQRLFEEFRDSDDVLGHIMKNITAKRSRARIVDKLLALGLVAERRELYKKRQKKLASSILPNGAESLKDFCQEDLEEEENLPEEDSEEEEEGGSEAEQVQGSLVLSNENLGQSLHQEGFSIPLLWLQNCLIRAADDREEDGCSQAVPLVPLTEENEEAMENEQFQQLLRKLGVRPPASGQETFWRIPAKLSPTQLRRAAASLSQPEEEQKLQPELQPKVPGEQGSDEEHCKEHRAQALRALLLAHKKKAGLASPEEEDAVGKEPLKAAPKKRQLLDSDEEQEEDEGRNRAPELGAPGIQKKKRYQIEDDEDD
UniProt Q96J01: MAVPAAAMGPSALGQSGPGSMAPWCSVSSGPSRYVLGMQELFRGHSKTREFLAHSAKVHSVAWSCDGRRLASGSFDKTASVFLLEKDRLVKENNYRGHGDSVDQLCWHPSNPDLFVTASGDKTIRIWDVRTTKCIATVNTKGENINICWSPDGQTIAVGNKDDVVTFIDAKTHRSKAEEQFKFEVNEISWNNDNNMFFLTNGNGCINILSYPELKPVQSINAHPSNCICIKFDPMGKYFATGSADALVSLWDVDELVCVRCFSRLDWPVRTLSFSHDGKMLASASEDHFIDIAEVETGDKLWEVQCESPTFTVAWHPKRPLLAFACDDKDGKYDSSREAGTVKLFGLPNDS
UniProt Q9P016: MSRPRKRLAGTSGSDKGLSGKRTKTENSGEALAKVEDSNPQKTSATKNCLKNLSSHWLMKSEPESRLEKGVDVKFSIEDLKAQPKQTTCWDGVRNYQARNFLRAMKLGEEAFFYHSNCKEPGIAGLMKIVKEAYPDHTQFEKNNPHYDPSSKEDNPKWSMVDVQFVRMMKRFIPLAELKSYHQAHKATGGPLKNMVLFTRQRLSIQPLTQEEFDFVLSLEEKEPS
UniProt Q9UM00: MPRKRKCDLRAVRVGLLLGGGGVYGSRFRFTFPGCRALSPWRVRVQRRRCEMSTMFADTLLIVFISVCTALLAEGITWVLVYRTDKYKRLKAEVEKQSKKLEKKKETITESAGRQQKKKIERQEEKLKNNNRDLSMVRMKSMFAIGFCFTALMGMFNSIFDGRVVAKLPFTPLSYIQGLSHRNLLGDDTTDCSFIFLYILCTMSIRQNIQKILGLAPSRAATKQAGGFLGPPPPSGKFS
UniProt Q99595: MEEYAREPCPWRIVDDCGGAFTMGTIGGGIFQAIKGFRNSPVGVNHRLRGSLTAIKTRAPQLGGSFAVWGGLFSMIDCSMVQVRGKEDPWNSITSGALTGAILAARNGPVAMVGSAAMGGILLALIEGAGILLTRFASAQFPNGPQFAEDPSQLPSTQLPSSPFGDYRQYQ
UniProt Q9Y4G6: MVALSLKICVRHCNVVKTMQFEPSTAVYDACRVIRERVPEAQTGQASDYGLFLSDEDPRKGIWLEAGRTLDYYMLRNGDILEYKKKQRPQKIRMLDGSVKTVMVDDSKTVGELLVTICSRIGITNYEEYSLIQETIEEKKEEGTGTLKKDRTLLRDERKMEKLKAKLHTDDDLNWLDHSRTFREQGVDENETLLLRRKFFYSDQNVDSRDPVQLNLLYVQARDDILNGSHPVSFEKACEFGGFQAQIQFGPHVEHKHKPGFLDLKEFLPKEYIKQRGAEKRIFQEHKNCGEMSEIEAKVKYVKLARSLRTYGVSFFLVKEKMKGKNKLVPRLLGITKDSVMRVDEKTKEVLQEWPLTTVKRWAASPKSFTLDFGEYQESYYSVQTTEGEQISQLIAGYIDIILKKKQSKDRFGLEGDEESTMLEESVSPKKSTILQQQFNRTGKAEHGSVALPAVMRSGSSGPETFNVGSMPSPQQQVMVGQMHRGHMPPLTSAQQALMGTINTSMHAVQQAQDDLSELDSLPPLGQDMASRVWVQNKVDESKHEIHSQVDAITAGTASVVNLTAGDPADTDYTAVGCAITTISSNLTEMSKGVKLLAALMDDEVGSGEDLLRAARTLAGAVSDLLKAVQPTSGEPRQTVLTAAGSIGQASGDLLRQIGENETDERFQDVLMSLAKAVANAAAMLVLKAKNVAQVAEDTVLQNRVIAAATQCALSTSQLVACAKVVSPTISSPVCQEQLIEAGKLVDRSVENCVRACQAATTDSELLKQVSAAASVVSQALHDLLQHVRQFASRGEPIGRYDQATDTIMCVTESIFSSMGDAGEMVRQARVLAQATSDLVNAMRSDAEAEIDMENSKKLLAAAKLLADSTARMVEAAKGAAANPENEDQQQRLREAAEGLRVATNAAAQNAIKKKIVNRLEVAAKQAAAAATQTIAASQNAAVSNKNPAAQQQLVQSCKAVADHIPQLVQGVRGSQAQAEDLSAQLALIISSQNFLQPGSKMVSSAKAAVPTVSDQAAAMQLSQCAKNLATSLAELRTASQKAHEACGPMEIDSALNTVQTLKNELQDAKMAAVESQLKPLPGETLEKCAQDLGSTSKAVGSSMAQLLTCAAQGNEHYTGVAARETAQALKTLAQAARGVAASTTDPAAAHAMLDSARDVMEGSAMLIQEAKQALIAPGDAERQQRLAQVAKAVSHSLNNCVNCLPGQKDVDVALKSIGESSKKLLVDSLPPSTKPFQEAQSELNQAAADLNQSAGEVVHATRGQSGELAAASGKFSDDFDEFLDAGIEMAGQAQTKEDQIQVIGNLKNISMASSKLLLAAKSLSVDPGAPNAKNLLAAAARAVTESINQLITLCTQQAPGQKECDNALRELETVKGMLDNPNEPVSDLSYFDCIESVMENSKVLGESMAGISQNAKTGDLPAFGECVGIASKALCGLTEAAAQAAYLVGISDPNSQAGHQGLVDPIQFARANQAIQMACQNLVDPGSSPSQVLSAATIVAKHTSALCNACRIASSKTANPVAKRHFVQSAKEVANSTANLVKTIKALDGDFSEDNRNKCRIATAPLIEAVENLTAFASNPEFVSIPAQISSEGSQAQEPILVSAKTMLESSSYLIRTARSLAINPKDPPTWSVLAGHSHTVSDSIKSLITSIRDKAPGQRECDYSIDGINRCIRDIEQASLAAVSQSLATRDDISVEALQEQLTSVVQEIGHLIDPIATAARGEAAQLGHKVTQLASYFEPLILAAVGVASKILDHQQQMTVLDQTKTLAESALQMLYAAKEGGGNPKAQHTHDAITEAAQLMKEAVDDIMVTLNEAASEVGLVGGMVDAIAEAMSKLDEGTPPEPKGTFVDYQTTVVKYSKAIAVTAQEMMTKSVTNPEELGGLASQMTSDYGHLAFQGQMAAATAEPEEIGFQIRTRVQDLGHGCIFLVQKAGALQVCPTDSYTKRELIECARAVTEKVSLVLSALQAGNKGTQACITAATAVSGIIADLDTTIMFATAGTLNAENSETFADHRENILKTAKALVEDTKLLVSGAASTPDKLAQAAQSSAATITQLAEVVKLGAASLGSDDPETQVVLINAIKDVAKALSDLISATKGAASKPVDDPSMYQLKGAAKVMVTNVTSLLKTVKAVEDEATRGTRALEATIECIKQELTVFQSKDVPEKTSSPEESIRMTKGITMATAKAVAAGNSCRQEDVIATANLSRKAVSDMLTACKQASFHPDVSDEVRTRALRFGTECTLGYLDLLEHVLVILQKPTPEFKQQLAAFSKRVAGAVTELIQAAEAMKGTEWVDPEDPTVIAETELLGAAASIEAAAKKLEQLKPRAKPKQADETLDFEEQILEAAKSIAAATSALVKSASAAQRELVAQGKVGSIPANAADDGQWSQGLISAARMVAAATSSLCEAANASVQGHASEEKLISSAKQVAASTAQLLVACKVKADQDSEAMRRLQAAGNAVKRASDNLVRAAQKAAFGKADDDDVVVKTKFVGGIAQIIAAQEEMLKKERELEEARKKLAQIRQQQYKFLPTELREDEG

Key:
Assay in all cases: log2 fold change, soluble protein after heating vs DMSO (PISA); higher = thermal stabilisation; K562 lysate, 10 uM; active = over 0.2 and 3.5 SD of the protein, either way, in both replicates (recomputed)
[1] = compound: CS(=O)(=O)CCNCc1ccc(-c2ccc3ncnc(Nc4ccc(OCc5cccc(F)c5)c(Cl)c4)c3c2)o1 [lapatinib]
In short: (§1)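 Quantification was by TMTpro 16plex LC-MS/MS with equalised channel sums, applied to the supernatant after 21,000xg for 90 min. Samples were crude K562 extract at 1 mg/mL protein in PBS pH 7.4 with 1 mM MgCl2, treated with 10 μM compound for 30 min, heated for 3 min across 48°C-58°C, pooled and brought to 0.5% NP-40 at 4°C. Values are log-two fold changes in thermal stability relative to solvent controls, from duplicates.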

[2] = compound: CS(=O)(=O)N1CCN(Cc2cc3nc(-c4cccc5[nH]ncc45)nc(N4CCOCC4)c3s2)CC1 [pictilisib]
In short: as §1

[3] = compound: C[C@@H](Oc1cc(-c2cnn(C3CCNCC3)c2)cnc1N)c1c(Cl)ccc(F)c1Cl [crizotinib]
In short: as §1

[4] = compound: C[C@H](C1=CC=C(C=C1)C(=O)NC2=C3C=CNC3=NC=C2)N
In short: as §1

[5] = compound: C[C@H](Nc1ncnc2nc[nH]c12)c1cc2cccc(Cl)c2c(=O)n1-c1ccccc1 [duvelisib]
In short: as §1

[6] = compound: Cc1cc(Nc2cc(CN3CCOCC3)c3nc(C)c(Cc4ccc(Cl)cc4F)n3n2)n[nH]1 [gandotinib]
In short: as §1

[7] = compound: Cc1cc(Nc2cc(N3CCN(C)CC3)nc(Sc3ccc(NC(=O)C4CC4)cc3)n2)n[nH]1 [tozasertib]
In short: as §1

[8] = compound: Cc1ccc(-n2nc(C(C)(C)C)cc2NC(=O)Nc2ccc(OCCN3CCOCC3)c3ccccc23)cc1 [doramapimod]
In short: as §1

[9] = compound: Cc1ccc(NC(=O)c2ccc(CN3CC[C@H](N(C)C)C3)c(C(F)(F)F)c2)cc1Nc1nccc(-c2cncnc2)n1 [bafetinib]
In short: as §1

[10] = compound: Cc1cccc(CC(=O)N2CCc3c2ccc(-c2cn(C)c4ncnc(N)c24)c3F)n1
In short: as §1

[11] = compound: Cc1cn(-c2cc(NC(=O)c3ccc(C)c(Nc4nccc(-c5cccnc5)n4)c3)cc(C(F)(F)F)c2)cn1 [nilotinib]
In short: as §1

[12] = compound: Cc1nc(Nc2n[nH]c3c2CN(C(=O)N[C@H](CN(C)C)c2ccccc2)C3(C)C)c2sccc2n1
In short: as §1

[13] = compound: Cc1nc(Nc2ncc(C(=O)Nc3c(C)cccc3Cl)s2)cc(N2CCN(CCO)CC2)n1 [dasatinib]
In short: as §1

[14] = compound: Cc1ncc(-c2ccnc(Nc3ccc(S(C)(=O)=O)cc3)n2)n1C(C)C
In short: as §1

[15] = compound: Cn1cc(-c2ccc3c(c2)CCN3C(=O)Cc2cccc(C(F)(F)F)c2)c2c(N)ncnc21
In short: as §1

[16] = compound: Cn1cc(CNCC2CCN(c3ncc(C(=O)NO)cn3)CC2)c2ccccc21 [quisinostat]
In short: as §1

[17] = compound: Cn1cncc1[C@@](N)(c1ccc(Cl)cc1)c1ccc2c(c1)c(-c1cccc(Cl)c1)cc(=O)n2C [tipifarnib]
In short: as §1

[18] = compound: NC(=O)Nc1cc(-c2cccc(F)c2)sc1C(=O)N[C@H]1CCCNC1
In short: as §1

[19] = compound: NC(=O)c1cnc(N[C@@H]2CCCC[C@@H]2N)nc1Nc1cccc(-n2nccn2)c1
In short: as §1

[20] = compound: NC1(c2ccc(-c3nc4ccn5c(=O)[nH]nc5c4cc3-c3ccccc3)cc2)CCC1
In short: as §1

Measured: log2 fold change

TIMM17B (UniProt O60830)
inactive: [1] 0.019 | [2] 0.036 | [3] 0.004 | [4] -0.022 | [5] 0.006 | [6] 0.037 | [7] 0.017 | [8] -0.01 | [9] 0 | [10] 0.045 | [11] -0.003 | [12] 0.051 | [13] 0.012 | [14] -0.03 | [15] -0.048 | [16] 0.006 | [17] -0.049 | [18] 0.017 | [19] -0.006 | [20] -0.014

TJAP1 (UniProt Q5JTD0)
inactive: [1] -0.009 | [2] -0.059 | [3] 0.065 | [4] -0.092 | [5] 0.069 | [6] 0.09 | [7] -0.007 | [8] 0.014 | [9] -0.004 | [10] 0.122 | [11] 0.004 | [12] 0.006 | [13] 0.047 | [14] 0.065 | [15] -0.049 | [16] -0.025 | [17] -0.045 | [18] 0.019 | [19] -0.028 | [20] -0.05

THAP12 (UniProt O43422)
inactive: [1] -0.008 | [2] 0.009 | [3] -0.063 | [4] 0.11 | [5] 0.03 | [6] -0.043 | [7] 0.008 | [8] -0.005 | [9] -0.066 | [10] 0.018 | [11] 0.003 | [12] -0.018 | [13] -0.025 | [14] -0.055 | [15] -0.005 | [16] -0.099 | [17] -0.009 | [18] 0.042 | [19] 0.033 | [20] -0.026

TMED8 (UniProt Q6PL24)
inactive: [1] 0.014 | [2] -0.044 | [3] -0.028 | [4] 0.001 | [5] -0.03 | [6] -0.007 | [7] -0.026 | [8] 0.026 | [9] -0.063 | [10] 0.027 | [11] 0.029 | [12] 0.024 | [13] 0.065 | [14] -0.045 | [15] 0.028 | [16] -0.042 | [17] 0.069 | [18] 0.028 | [19] 0.009 | [20] 0.085

TIMM8B (UniProt Q9Y5J9)
inactive: [1] 0.069 | [2] -0.059 | [3] 0.032 | [4] 0.199 | [5] 0.11 | [6] -0.105 | [7] 0.074 | [8] 0.031 | [9] -0.002 | [10] -0.136 | [11] 0.034 | [12] 0.096 | [13] -0.012 | [14] 0.278 | [15] 0.065 | [16] 0.045 | [17] 0.085 | [18] -0.067 | [19] 0.044 | [20] -0.025

TIMM9 (UniProt Q9Y5J7)
inactive: [1] 0.064 | [2] -0.209 | [3] 0.018 | [4] 0.148 | [5] 0.012 | [6] -0.117 | [7] 0.02 | [8] 0.015 | [9] -0.033 | [10] -0.113 | [11] 0.066 | [12] 0.046 | [13] 0.021 | [14] 0.146 | [15] -0.022 | [16] 0.029 | [17] 0.052 | [18] -0.088 | [19] -0.029 | [20] -0.025

2 successive entries out of the list so far, for reference:
TJAP1 (UniProt Q5JTD0)
inactive: [1] -0.009 | [2] -0.059 | [3] 0.065 | [4] -0.092 | [5] 0.069 | [6] 0.09 | [7] -0.007 | [8] 0.014 | [9] -0.004 | [10] 0.122 | [11] 0.004 | [12] 0.006 | [13] 0.047 | [14] 0.065 | [15] -0.049 | [16] -0.025 | [17] -0.045 | [18] 0.019 | [19] -0.028 | [20] -0.05

THAP12 (UniProt O43422)
inactive: [1] -0.008 | [2] 0.009 | [3] -0.063 | [4] 0.11 | [5] 0.03 | [6] -0.043 | [7] 0.008 | [8] -0.005 | [9] -0.066 | [10] 0.018 | [11] 0.003 | [12] -0.018 | [13] -0.025 | [14] -0.055 | [15] -0.005 | [16] -0.099 | [17] -0.009 | [18] 0.042 | [19] 0.033 | [20] -0.026

The list continues.

TICAM2 isoform 2 (UniProt Q86XR7)
inactive: [1] -0.039 | [2] -0.024 | [3] -0.033 | [4] -0.04 | [5] -0.002 | [6] 0.027 | [7] 0.001 | [8] -0.041 | [9] -0.049 | [10] -0.016 | [11] -0.007 | [12] -0.042 | [13] 0.007 | [14] -0.07 | [15] 0.002 | [16] -0.044 | [17] 0.006 | [18] 0.008 | [19] -0.005 | [20] -0.029

TIMELESS (UniProt Q9UNS1)
inactive: [1] 0.017 | [2] -0.017 | [3] -0.077 | [4] -0.042 | [5] -0.029 | [6] -0.12 | [7] -0.026 | [8] -0.02 | [9] -0.082 | [10] 0.032 | [11] 0.018 | [12] -0.039 | [13] -0.082 | [14] 0.024 | [15] 0.005 | [16] -0.137 | [17] -0.052 | [18] 0.045 | [19] 0.029 | [20] -0.035

THOC3 (UniProt Q96J01)
inactive: [1] 0.007 | [2] -0.001 | [3] 0.01 | [4] 0.029 | [5] -0.016 | [6] -0.022 | [7] -0.015 | [8] 0.031 | [9] -0.031 | [10] -0.02 | [11] 0.029 | [12] -0.011 | [13] 0.007 | [14] 0.033 | [15] 0.041 | [16] 0.035 | [17] 0.033 | [18] -0.023 | [19] -0.014 | [20] 0.002

THYN1 (UniProt Q9P016)
inactive: [1] 0.001 | [2] -0.027 | [3] 0.046 | [4] 0.052 | [5] -0.023 | [6] -0.083 | [7] 0.067 | [8] 0.002 | [9] 0.016 | [10] -0.035 | [11] 0.005 | [12] 0.035 | [13] -0.019 | [14] 0.019 | [15] 0.022 | [16] 0.027 | [17] 0.004 | [18] 0.001 | [19] -0.002 | [20] -0.006

TMCO1 (UniProt Q9UM00)
inactive: [1] -0.043 | [2] -0.025 | [3] 0.011 | [4] 0.031 | [5] -0.02 | [6] -0.077 | [7] 0.047 | [8] -0.018 | [9] -0.059 | [10] 0.047 | [11] -0.08 | [12] -0.055 | [13] -0.002 | [14] 0.073 | [15] 0.011 | [16] 0.13 | [17] -0.017 | [18] 0.023 | [19] 0.02 | [20] 0.026

TIMM17A (UniProt Q99595)
inactive: [1] 0.004 | [2] -0.014 | [3] 0.117 | [4] 0.012 | [5] 0.06 | [6] 0.028 | [7] -0.082 | [8] -0.025 | [9] -0.019 | [10] 0.063 | [11] -0.016 | [12] 0.071 | [13] 0.051 | [14] -0.002 | [15] -0.149 | [16] 0.006 | [17] 0 | [18] 0.024 | [19] -0.017 | [20] -0.016

TLN2 (UniProt Q9Y4G6)
inactive: [1] -0.004 | [2] -0.02 | [3] 0.007 | [4] 0.035 | [5] -0.005 | [6] -0.02 | [7] -0.006 | [8] 0.033 | [9] -0.042 | [10] -0.021 | [11] 0.012 | [12] -0.005 | [13] 0.036 | [14] -0.003 | [15] 0.003 | [16] -0.052 | [17] 0.01 | [18] -0.005 | [19] -0.001 | [20] -0.013

THG1L (UniProt Q9NWX6)
inactive: [1] -0.011 | [2] -0.005 | [3] -0.005 | [4] 0.012 | [5] 0.045 | [6] -0.042 | [7] -0.021 | [8] -0.017 | [9] 0.025 | [10] -0.037 | [11] 0.003 | [12] -0.001 | [13] -0.006 | [14] 0.004 | [15] 0.006 | [16] 0.056 | [17] 0.027 | [18] -0.021 | [19] 0.003 | [20] -0.017

TLCD1 (UniProt Q96CP7)
inactive: [1] -0.073 | [2] 0.038 | [3] 0.002 | [4] 0.034 | [5] -0.091 | [6] 0.059 | [7] 0.145 | [8] 0.113 | [9] 0.128 | [10] -0.005 | [11] 0.087 | [12] 0.055 | [13] -0.035 | [14] 0.175 | [15] 0.283 | [16] -0.135 | [17] 0.051 | [18] -0.037 | [19] 0.011 | [20] -0.137

TGFBRAP1 (UniProt Q8WUH2)
inactive: [1] -0.029 | [2] -0.021 | [3] -0.034 | [4] -0.001 | [5] -0.03 | [6] -0.138 | [7] 0.052 | [8] 0.028 | [9] -0.056 | [10] -0.007 | [11] 0.005 | [12] -0.043 | [13] -0.048 | [14] -0.015 | [15] 0.06 | [16] -0.076 | [17] 0.004 | [18] 0.029 | [19] 0.009 | [20] 0.04
